In PMC4299599, “Quantification of cytosolic interactions identifies Ede1 oligomers as key organizers of endocytosis” (Molecular Systems Biology, 2014):
Results are given in words; binding and its absence hold for the method and conditions named. Some results given as binding are weak or reduced against the parent protein; the word gives no strength.

Sequences of proteins named here, by UniProt entry; tags and fusion partners are left off.
UniProt Q12446: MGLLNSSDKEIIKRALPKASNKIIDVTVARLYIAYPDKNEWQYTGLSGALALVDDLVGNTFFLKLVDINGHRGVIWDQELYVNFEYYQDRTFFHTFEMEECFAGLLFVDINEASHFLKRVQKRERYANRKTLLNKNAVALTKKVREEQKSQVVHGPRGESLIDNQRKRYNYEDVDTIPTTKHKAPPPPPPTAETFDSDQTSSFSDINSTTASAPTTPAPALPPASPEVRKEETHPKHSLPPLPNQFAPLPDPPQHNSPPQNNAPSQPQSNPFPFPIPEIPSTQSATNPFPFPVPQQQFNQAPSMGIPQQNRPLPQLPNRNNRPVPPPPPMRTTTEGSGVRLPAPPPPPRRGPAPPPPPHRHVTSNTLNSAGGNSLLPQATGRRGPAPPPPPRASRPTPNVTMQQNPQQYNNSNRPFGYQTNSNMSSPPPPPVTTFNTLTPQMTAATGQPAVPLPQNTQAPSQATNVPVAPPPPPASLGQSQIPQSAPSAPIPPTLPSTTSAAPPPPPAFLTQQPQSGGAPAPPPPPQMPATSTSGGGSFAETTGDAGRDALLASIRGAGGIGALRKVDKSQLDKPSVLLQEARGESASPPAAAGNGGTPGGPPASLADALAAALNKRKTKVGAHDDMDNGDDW

Legend:
[1] = target: T1, Bbc1 (S. cerevisiae, UniProt P47068 1-1157); assay: fluorescence cross-correlation spectroscopy (FCCS); living yeast cells, observation volume in the cytoplasm; one protein tagged with (3)myeGFP/eGFP and the other with 3mCherry in the same strain; apparent (effective) KD; interactions up to ~1 μM detectable
T1 construct: Bbc1, S. cerevisiae; also called Bbc1-3myeGFP; Bbc1-3mCherry; source: chromosomally tagged at the endogenous locus, in the cytoplasm of living S. cerevisiae cells
T1 sequence (looked up): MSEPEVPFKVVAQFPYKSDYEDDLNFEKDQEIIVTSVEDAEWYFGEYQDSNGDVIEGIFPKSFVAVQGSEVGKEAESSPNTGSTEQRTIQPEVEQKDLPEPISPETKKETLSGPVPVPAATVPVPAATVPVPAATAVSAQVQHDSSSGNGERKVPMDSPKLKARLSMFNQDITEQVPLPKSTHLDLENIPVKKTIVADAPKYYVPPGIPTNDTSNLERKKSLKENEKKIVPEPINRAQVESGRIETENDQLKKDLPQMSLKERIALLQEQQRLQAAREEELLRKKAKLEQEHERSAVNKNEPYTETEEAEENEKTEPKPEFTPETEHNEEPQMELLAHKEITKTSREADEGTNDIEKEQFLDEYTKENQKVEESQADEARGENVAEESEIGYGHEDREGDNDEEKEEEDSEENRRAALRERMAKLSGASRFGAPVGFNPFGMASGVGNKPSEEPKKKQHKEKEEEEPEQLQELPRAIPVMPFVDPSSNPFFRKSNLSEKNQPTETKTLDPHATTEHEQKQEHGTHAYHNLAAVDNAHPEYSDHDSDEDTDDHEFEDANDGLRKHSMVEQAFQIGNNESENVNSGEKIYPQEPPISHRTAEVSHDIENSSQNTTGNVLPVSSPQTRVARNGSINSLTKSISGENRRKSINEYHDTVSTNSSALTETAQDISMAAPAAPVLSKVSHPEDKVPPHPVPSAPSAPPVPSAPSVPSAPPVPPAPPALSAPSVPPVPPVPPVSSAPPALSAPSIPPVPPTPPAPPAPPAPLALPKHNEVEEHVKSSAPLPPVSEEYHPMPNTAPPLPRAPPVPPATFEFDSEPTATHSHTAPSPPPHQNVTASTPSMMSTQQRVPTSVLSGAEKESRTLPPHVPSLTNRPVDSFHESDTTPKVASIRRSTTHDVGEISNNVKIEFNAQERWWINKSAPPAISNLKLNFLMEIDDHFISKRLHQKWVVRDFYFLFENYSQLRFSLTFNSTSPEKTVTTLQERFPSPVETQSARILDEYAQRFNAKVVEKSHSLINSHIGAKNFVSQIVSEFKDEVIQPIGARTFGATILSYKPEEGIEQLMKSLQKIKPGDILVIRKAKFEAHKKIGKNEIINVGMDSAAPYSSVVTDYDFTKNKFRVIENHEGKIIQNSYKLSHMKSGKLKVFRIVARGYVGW

[2] = target: Las17 (S. cerevisiae) (UniProt Q12446); assay: condition: detection range of FCCS: apparent KD up to ~1 μM; fluorescence cross-correlation spectroscopy (FCCS); self-interaction: living diploid yeast cells with one allele fused to (3)myeGFP and one to (3)mCherry, cytoplasm; apparent (effective) KD, to be taken as the upper limit since complexes of one colour are not seen
[3] = target: T2, Sla2 (S. cerevisiae, UniProt P33338 1-968); assay: condition: 1000 nM (only Kdeff-values < 1000 nM are shown); fluorescence cross-correlation spectroscopy (FCCS); in the cytoplasm of living yeast cells; first-named protein green (3myeGFP or 1myeGFP; eGFP for Don1), second red (3mCherry); self-interaction in diploid strains with one allele of each colour; apparent or effective KD (Kdeff) from single-cell measurements; only Kdeff values < 1000 nM are shown; values for self-interactions are upper limits
T2 construct: Sla2, S. cerevisiae; also called Sla2-3myeGFP; Sla2-3mCherry; source: chromosomally tagged at the endogenous locus, in the cytoplasm of living S. cerevisiae cells
T2 sequence (looked up): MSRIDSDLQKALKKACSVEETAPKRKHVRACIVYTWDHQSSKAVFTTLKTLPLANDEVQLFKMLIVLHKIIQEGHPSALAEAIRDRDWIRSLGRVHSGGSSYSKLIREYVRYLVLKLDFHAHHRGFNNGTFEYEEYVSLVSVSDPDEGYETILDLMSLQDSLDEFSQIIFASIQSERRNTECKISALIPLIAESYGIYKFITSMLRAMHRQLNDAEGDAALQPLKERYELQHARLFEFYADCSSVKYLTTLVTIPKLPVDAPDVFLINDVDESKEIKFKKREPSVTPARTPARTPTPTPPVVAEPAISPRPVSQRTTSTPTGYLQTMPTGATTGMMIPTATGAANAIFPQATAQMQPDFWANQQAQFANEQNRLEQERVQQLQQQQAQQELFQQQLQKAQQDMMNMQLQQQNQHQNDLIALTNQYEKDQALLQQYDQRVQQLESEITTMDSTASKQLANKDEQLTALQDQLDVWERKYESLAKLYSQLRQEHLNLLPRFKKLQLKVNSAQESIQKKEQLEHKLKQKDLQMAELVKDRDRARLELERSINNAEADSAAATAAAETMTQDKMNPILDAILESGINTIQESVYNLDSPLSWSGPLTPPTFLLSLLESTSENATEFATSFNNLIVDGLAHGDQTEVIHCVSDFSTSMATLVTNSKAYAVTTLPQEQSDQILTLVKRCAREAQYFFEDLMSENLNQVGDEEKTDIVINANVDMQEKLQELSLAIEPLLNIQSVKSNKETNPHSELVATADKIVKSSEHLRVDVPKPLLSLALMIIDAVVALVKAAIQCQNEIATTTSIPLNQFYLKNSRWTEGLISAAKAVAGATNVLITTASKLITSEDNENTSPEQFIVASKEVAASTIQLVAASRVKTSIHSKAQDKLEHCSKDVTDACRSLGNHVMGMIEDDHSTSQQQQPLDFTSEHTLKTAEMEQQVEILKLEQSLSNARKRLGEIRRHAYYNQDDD

[4] = target: Las17 (S. cerevisiae) (UniProt Q12446); assay: as above
[5] = target: T3, Rvs161 (S. cerevisiae) (UniProt P25343); assay: as above
T3 sequence: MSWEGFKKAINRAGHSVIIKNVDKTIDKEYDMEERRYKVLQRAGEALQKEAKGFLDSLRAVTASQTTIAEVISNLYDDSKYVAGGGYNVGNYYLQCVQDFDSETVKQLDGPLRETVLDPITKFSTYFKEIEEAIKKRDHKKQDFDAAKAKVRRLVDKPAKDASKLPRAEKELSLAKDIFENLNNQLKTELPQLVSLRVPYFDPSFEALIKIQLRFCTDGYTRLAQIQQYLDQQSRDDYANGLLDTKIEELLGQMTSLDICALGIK

[6] = target: T4, Sla1 (S. cerevisiae), P32790; assay: condition: detection range of FCCS: apparent KD up to ~1 μM; fluorescence cross-correlation spectroscopy (FCCS); self-interaction: living diploid yeast cells with one allele fused to (3)myeGFP and one to (3)mCherry, cytoplasm; apparent (effective) KD, to be taken as the upper limit since complexes of one colour are not seen; settings: remark: other sources report otherwise
T4 chain: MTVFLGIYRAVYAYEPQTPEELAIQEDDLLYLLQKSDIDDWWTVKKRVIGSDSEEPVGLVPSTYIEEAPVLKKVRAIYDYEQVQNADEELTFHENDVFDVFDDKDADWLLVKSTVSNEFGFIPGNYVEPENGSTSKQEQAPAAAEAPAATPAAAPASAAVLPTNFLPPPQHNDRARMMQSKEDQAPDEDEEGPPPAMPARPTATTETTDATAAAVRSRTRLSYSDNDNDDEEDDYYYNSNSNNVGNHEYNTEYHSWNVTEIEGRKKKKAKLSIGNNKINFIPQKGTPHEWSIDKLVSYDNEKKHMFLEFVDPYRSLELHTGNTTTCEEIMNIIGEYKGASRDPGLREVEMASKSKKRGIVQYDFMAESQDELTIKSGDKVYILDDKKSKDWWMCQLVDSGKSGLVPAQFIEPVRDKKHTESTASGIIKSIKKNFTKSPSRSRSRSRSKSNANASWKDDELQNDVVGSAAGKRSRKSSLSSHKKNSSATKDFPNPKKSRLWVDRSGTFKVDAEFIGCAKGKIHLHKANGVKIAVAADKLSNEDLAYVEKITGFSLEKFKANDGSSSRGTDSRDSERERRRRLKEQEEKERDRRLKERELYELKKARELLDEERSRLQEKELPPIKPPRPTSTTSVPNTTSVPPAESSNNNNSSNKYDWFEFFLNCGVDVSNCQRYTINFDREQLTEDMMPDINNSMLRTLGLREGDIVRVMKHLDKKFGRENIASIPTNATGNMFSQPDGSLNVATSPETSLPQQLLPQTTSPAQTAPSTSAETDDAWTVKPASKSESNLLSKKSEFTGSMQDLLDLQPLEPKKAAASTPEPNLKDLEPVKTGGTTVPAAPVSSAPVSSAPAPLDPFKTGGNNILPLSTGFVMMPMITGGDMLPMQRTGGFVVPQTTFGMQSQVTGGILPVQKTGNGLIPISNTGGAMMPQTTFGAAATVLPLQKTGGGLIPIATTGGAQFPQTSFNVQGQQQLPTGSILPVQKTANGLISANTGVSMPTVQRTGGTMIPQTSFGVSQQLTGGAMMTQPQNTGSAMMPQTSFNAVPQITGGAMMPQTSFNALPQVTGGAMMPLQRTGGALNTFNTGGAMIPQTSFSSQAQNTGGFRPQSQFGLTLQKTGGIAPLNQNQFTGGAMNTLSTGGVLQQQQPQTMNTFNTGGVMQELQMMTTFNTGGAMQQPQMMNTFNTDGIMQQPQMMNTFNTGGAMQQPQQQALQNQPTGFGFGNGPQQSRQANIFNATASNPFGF

[7] = target: T4, Sla1 (S. cerevisiae), P32790; assay: condition: 1000 nM (only Kdeff-values < 1000 nM are shown); fluorescence cross-correlation spectroscopy (FCCS); in the cytoplasm of living yeast cells; first-named protein green (3myeGFP or 1myeGFP; eGFP for Don1), second red (3mCherry); self-interaction in diploid strains with one allele of each colour; apparent or effective KD (Kdeff) from single-cell measurements; only Kdeff values < 1000 nM are shown; values for …; settings: remark: other sources report otherwise

Molecule: Las17 (from UniProt Q12446 1-633)
- binding [1]: binds
- binding [2]: no binding
- binding [3]: no binding
- binding [4]: no binding
- binding [5]: no binding

B1: Sla1, P32790 1-1244 (protein)
chain: MTVFLGIYRAVYAYEPQTPEELAIQEDDLLYLLQKSDIDDWWTVKKRVIGSDSEEPVGLVPSTYIEEAPVLKKVRAIYDYEQVQNADEELTFHENDVFDVFDDKDADWLLVKSTVSNEFGFIPGNYVEPENGSTSKQEQAPAAAEAPAATPAAAPASAAVLPTNFLPPPQHNDRARMMQSKEDQAPDEDEEGPPPAMPARPTATTETTDATAAAVRSRTRLSYSDNDNDDEEDDYYYNSNSNNVGNHEYNTEYHSWNVTEIEGRKKKKAKLSIGNNKINFIPQKGTPHEWSIDKLVSYDNEKKHMFLEFVDPYRSLELHTGNTTTCEEIMNIIGEYKGASRDPGLREVEMASKSKKRGIVQYDFMAESQDELTIKSGDKVYILDDKKSKDWWMCQLVDSGKSGLVPAQFIEPVRDKKHTESTASGIIKSIKKNFTKSPSRSRSRSRSKSNANASWKDDELQNDVVGSAAGKRSRKSSLSSHKKNSSATKDFPNPKKSRLWVDRSGTFKVDAEFIGCAKGKIHLHKANGVKIAVAADKLSNEDLAYVEKITGFSLEKFKANDGSSSRGTDSRDSERERRRRLKEQEEKERDRRLKERELYELKKARELLDEERSRLQEKELPPIKPPRPTSTTSVPNTTSVPPAESSNNNNSSNKYDWFEFFLNCGVDVSNCQRYTINFDREQLTEDMMPDINNSMLRTLGLREGDIVRVMKHLDKKFGRENIASIPTNATGNMFSQPDGSLNVATSPETSLPQQLLPQTTSPAQTAPSTSAETDDAWTVKPASKSESNLLSKKSEFTGSMQDLLDLQPLEPKKAAASTPEPNLKDLEPVKTGGTTVPAAPVSSAPVSSAPAPLDPFKTGGNNILPLSTGFVMMPMITGGDMLPMQRTGGFVVPQTTFGMQSQVTGGILPVQKTGNGLIPISNTGGAMMPQTTFGAAATVLPLQKTGGGLIPIATTGGAQFPQTSFNVQGQQQLPTGSILPVQKTANGLISANTGVSMPTVQRTGGTMIPQTSFGVSQQLTGGAMMTQPQNTGSAMMPQTSFNAVPQITGGAMMPQTSFNALPQVTGGAMMPLQRTGGALNTFNTGGAMIPQTSFSSQAQNTGGFRPQSQFGLTLQKTGGIAPLNQNQFTGGAMNTLSTGGVLQQQQPQTMNTFNTGGVMQELQMMTTFNTGGAMQQPQMMNTFNTDGIMQQPQMMNTFNTGGAMQQPQQQALQNQPTGFGFGNGPQQSRQANIFNATASNPFGF
- binding [6]: no binding
- binding [7]: no binding
